# According to the supplement of paper PMC10373366:
# Structures can show the parent of a compound that is named as a salt. The list shows a part of the results. Many values rest on one well or one pass, so single values are uncertain.
# How the values were obtained:
# A2780 = assay: cell growth inhibition ratio vs untreated control (CCK8); higher = stronger inhibition of cell viability; details: 10 µM; 48 h
# Method: (§1)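 Natural product library (Topscience) screened at 10 µM final concentration for 48 h on ovarian cancer A2780 cells and patient-derived ovarian cancer cells (PDC) in 96-well plates; viability read by CCK8 and reported as inhibition ratio (%) relative to untreated control. Single-dose primary screen.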
# [1] = tested on: patient-derived ovarian cancer cells (PDC); assay: as above; details: 10 µM; 48 h
# Method: as §1
SMILES,cell growth inhibition ratio (A2780) [%],cell growth inhibition ratio [1] [%]
O=C(/C=C/C=C/c1ccc2c(c1)OCO2)N1CCCCC1 [Piperine],4.23,4.32
COc1cc2c(cc1OC)-c1cc3ccc(OC)c(OC)c3c[n+]1CC2 [Palmatine chloride],-33,-3.49
CC(C)(O[C@@H]1O[C@H](CO)[C@@H](O)[C@H](O)[C@H]1O)[C@H]1Cc2cc3ccc(=O)oc3cc2O1 [Nodakenin],7.78,0.757
COc1cc(O)c(CC=C(C)C)c(O)c1C(=O)/C=C/c1ccc(O)cc1 [Xanthohumol],43.9,13.5
C=C1CC[C@@H]2[C@](C)(CO)[C@H](O)CC[C@@]2(C)[C@H]1C/C=C1\C=COC1=O [Dehydroandrographolide],18.8,-2.26
CC(C)=CCC[C@@](C)(O)[C@H]1CC[C@]2(C)[C@@H]1[C@H](O)C[C@@H]1[C@@]3(C)CC[C@H](O[C@@H]4O[C@H](CO)[C@@H](O)[C@H](O)[C@H]4O[C@@H]4O[C@H](CO)[C@@H](O)[C@H](O)[C@H]4O)C(C)(C)[C@@H]3CC[C@]12C [20(R)-Propanaxadiol],12.3,-20.5
COc1c2c(cc3oc(CO[C@@H]4O[C@H](CO)[C@@H](O)[C@H](O)[C@H]4O)cc(=O)c13)O[C@H](C(C)(C)O)C2,2.47,-2.02
CC1(C)C=Cc2c(ccc3c2OC[C@@H](c2ccc(O)cc2O)C3)O1 [Glabridin],2.6,-1.68
N[C@@H](Cc1cc(I)c(Oc2ccc(O)c(I)c2)c(I)c1)C(=O)O [Lyothyronine],-1.86,-5.39
CCCCCC=CCC=CCCCCCCCC(=O)OC(COC(=O)CCCCCCCCCCCCCCC)COP(=O)([O-])OCC[N+](C)(C)C [L-α-Phosphatidylcholine],6.62,9.51
CCCCCCCCCCCCCCCC(=O)O [Palmitic acid],12.5,0.93
C[C@H]1O[C@@H](O[C@H]2[C@@H](O)C[C@H](O[C@H]3[C@@H](O)C[C@H](O[C@H]4CC[C@@]5(C)[C@H](CC[C@@H]6[C@@H]5C[C@@H](O)[C@]5(C)[C@@H](C7=CC(=O)OC7)CC[C@]65O)C4)O[C@@H]3C)O[C@@H]2C)C[C@H](O)[C@@H]1O [Digoxin],85.4,66
C=C(C)[C@@H]1CC[C@]2(C(=O)O)CC[C@]3(C)[C@H](CC[C@@H]4[C@@]5(C)CC[C@H](O[C@@H]6OC[C@H](O)[C@H](O)[C@H]6O[C@@H]6O[C@@H](C)[C@H](O)[C@@H](O)[C@H]6O)[C@@](C)(CO)[C@@H]5CC[C@]43C)[C@@H]12 [Anemoside A3],-3.63,9.66
C=C1C[C@@]2(O)O[C@@]3(C[C@H]2C(C)C)[C@@H](C)CC[C@@H]13 [Curcumol],1.67,-1.04
O=C(/C=C/c1ccc(O)c(O)c1)O[C@@H]1C[C@](O)(C(=O)O)C[C@@H](O)[C@H]1O [Chlorogenic Acid],7,-4.05
CC1=CCC[C@H](C)C(=O)C[C@@H](C(C)C)C(=O)C1 [Curdione],3.18,13.9
Cn1c(=O)c2c(ncn2CC(=O)O)n(C)c1=O [Theophylline-7-acetic acid],-1.29,-7.27
C/C=C/c1ccc(OC)cc1 [Trans-Anethole],19.4,-3.2
COc1cc2oc(=O)ccc2cc1O,8.25,0.237
CC(C)=CCC[C@](C)(O[C@@H]1O[C@H](CO[C@@H]2O[C@@H](CO)[C@H](O)[C@H]2O)[C@@H](O)[C@H](O)[C@H]1O)[C@H]1CC[C@]2(C)[C@@H]1[C@H](O)C[C@@H]1[C@@]3(C)CC[C@H](O[C@@H]4O[C@H](CO)[C@@H](O)[C@H](O)[C@H]4O[C@@H]4O[C@H](CO)[C@@H](O)[C@H](O)[C@H]4O)C(C)(C)[C@@H]3CC[C@]12C [Ginsenoside Rc],1.83,-1.92
O=c1c2cc(O)c(O)cc2oc2cc(O)c([C@@H]3O[C@H](CO)[C@@H](O)[C@H](O)[C@H]3O)c(O)c12 [Mangiferin],8.79,-6.79
C[C@@H]1O[C@@H](OC[C@H]2O[C@@H](Oc3cc(O)c4c(=O)cc(-c5ccc(O)cc5)oc4c3)[C@H](O[C@@H]3O[C@@H](C)[C@H](O)[C@@H](O)[C@H]3O)[C@@H](O)[C@@H]2O)[C@H](O)[C@H](O)[C@H]1O [Ligustroflavone],5.92,-1.58
O=c1c(-c2ccc(O)cc2)coc2cc(O[C@@H]3O[C@H](CO)[C@@H](O)[C@H](O)[C@H]3O)cc(O)c12 [Genistin],33.8,-10.7
CC1(C)[C@@H](O[C@H]2O[C@H](C(=O)O)[C@@H](O)[C@H](O)[C@H]2O[C@@H]2O[C@H](C(=O)O)[C@@H](O)[C@H](O)[C@H]2O)CC[C@]2(C)[C@H]3C(=O)C=C4[C@@H]5C[C@@](C)(C(=O)O)CC[C@]5(C)CC[C@@]4(C)[C@]3(C)CC[C@@H]12 [Monoammonium glycyrrhizinate],18.3,3.67
CCCCCCCCC[C@H](O)CC(=O)CCc1ccc(O)c(OC)c1 [10-Gingerol],22.4,-11.9
C=CCc1cc(OC)c(OC)c(OC)c1 [Elemicin],-0.371,-0.564
C[C@H]1COC2=C1C(=O)C(=O)c1c2ccc2c1CCCC2(C)C [Cryptotanshinone],45.1,18.6

SMILES,cell growth inhibition ratio (A2780) [%],cell growth inhibition ratio [1] [%]
COc1cc(/C=C/c2cc(O)cc(O)c2)ccc1O [Isorhapontigenin],52.8,11.4
COc1cc(O)cc2c1C(=O)C[C@@H](c1ccccc1)O2 [Alpinetin],29.6,-7.34
C=C(C)[C@H]1CC=C(C)CC1 [Cinene],21.3,-7.02
N[C@@H](C=O)[C@@H](O)[C@H](O)[C@H](O)CO [Glucosamine sulfate],91.6,67.2
O=c1ccc2ccc(O)c(O)c2o1 [Daphnetin],-9.81,-0.387
Nc1ncnc2c1ncn2[C@@H]1O[C@H](CO)C[C@H]1O [Cordycepin],10.4,5.16
O=c1c(O)c(-c2ccccc2)oc2cc(O)cc(O)c12 [Galangin],12.5,10.2
CC(C)=CCC/C(C)=C/C=O [Citral],4.4,5.45
C=CCSC[C@H](N)C(=O)O [S-allyl-L-cysteine],14.7,1.72
C[C@@H]1CC[C@@]2(OC1)O[C@H]1C[C@H]3[C@@H]4CC=C5C[C@@H](O[C@@H]6O[C@H](CO)[C@@H](O)[C@H](O[C@@H]7O[C@H](CO)[C@@H](O)[C@H](O)[C@H]7O)[C@H]6O[C@@H]6O[C@@H](C)[C@H](O)[C@@H](O)[C@H]6O)CC[C@]5(C)[C@H]4CC[C@]3(C)[C@H]1[C@@H]2C [Gracillin],93.3,92.4
O=c1c(O)c(-c2ccc(O)cc2)oc2cc(O)cc(O)c12 [Kaempferol],-31.6,-3.82
C=C1CC[C@@H]2[C@](C)(CO[C@@H]3O[C@H](CO)[C@@H](O)[C@H](O)[C@H]3O)CCC[C@@]2(C)[C@@H]1CCC1=CCOC1=O [Neoandrographolide],4.63,2.7
O=C(O)/C=C/c1ccccc1 [Cinnamic acid],9.12,11
CC(=O)[C@@]1(O)CC[C@H]2[C@@H]3CCC4=CC(=O)CC[C@]4(C)[C@H]3CC[C@@]21C [Hydroxyprogesterone],10.6,-12.8
NCCC[C@H](N)C(=O)O [L-Ornithine],-9.97,-5.74
CC[C@]1(O)C[C@H]2CN(CCc3c([nH]c4ccccc34)[C@@](C(=O)OC)(c3cc4c(cc3OC)N(C=O)[C@H]3[C@@](O)(C(=O)OC)[C@H](OC(C)=O)[C@]5(CC)C=CCN6CC[C@]43[C@@H]65)C2)C1 [Vincristine sulfate],88.1,45.5
Nc1nc(=O)c2c([nH]1)NC[C@H](CNc1ccc(C(=O)N[C@@H](CCC(=O)O)C(=O)O)cc1)N2C=O [Calcium Levofolinate],5.93,-18.4
COC(=O)c1cc(O)c(O)c(O)c1 [Methyl gallate],5.5,5.64
CC(C)=CCCC(C)CCO (stereo not drawn) [Citronellol],15.4,15.3
NC[C@@H]1O[C@H](O[C@H]2[C@@H](O)[C@H](O[C@@H]3[C@@H](O)[C@H](N)C[C@H](N)[C@H]3O[C@H]3O[C@H](CO)[C@@H](O)[C@H](O)[C@H]3N)O[C@@H]2CO)[C@H](N)[C@@H](O)[C@@H]1O [Paromomycin Sulfate],3.8,12.7
C=C1C(=O)[C@]23[C@H](CC[C@@H]1[C@@H]2O)[C@]12CO[C@@]3(O)[C@H](O)[C@H]1C(C)(C)CC[C@@H]2O [Rubescensin A],66.3,26.5
CN[C@@H]1[C@H](O)[C@H](NC)[C@H]2O[C@@]3(O)C(=O)C[C@@H](C)O[C@H]3O[C@@H]2[C@H]1O [Spectinomycin dihydrochloride],7.14,6.91
COc1cc(/C=C/C(=O)O)ccc1O [Ferulic Acid],8.44,8.28
CC1(C)CCC[C@](C)([C@H]2CC[C@]3(C)[C@@H]2[C@H](O)C[C@@H]2[C@@]4(C)CC[C@H](O)C(C)(C)[C@@H]4CC[C@]23C)O1 [Panaxadiol],1.47,8.09
O=C[C@H](O)[C@@H](O)[C@H](O)CO (racemic) [DL-Xylose],-0.842,-8.94
CNC1CCCN(c2c(F)cc3c(=O)c(C(=O)O)cn(C4CC4)c3c2OC)C1 (stereo not drawn) [Balofloxacin],9.4,0.53
O=C(OC[C@H]1O[C@@H](OC(=O)c2cc(O)c(O)c(OC(=O)c3cc(O)c(O)c(O)c3)c2)[C@H](OC(=O)c2cc(O)c(O)c(OC(=O)c3cc(O)c(O)c(O)c3)c2)[C@@H](OC(=O)c2cc(O)c(O)c(OC(=O)c3cc(O)c(O)c(O)c3)c2)[C@@H]1OC(=O)c1cc(O)c(O)c(OC(=O)c2cc(O)c(O)c(O)c2)c1)c1cc(O)c(O)c(OC(=O)c2cc(O)c(O)c(O)c2)c1 [Glycerite],8.22,-6.41

# Among those listed so far, these have an NH in an aromatic ring:
SMILES,cell growth inhibition ratio (A2780) [%],cell growth inhibition ratio [1] [%]
CC[C@]1(O)C[C@H]2CN(CCc3c([nH]c4ccccc34)[C@@](C(=O)OC)(c3cc4c(cc3OC)N(C=O)[C@H]3[C@@](O)(C(=O)OC)[C@H](OC(C)=O)[C@]5(CC)C=CCN6CC[C@]43[C@@H]65)C2)C1 [Vincristine sulfate],88.1,45.5
Nc1nc(=O)c2c([nH]1)NC[C@H](CNc1ccc(C(=O)N[C@@H](CCC(=O)O)C(=O)O)cc1)N2C=O [Calcium Levofolinate],5.93,-18.4
